# The list shows a part of the results. These are further read-outs of the screen, such as a control signal, another cell line or another target. No call is given for them. The list favours compounds with an active or inconclusive main result. Potencies come from curve fits of mixed quality, noted in brackets.
# Assay: qHTS Assay for Lipid Storage Modulators in Drosophila S3 Cells;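 on cell number change: cells counted by Cell Tracker Red CMTPX staining in the red channel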
# Conditions: BODIPY lipid droplet fluorescence, 18-24 h; for cell number change: measured here: cell count max response, cells fed with added oleic acid
# Method in brief: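 Drosophila S3 cells loaded with oleic acid (400 uM, as added) and compounds at several concentrations; lipid droplets imaged by 488-nm laser-scanning cytometry, 500–530 nm intensity and object ratio to cell channel. Percent activity normalized to 20 uM Triacsin C.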
# [1] = measured here: cell number channel AC50, cells fed with added oleic acid
# [2] = measured here: lipid fluorescence (Fed channel) AC50, cells fed with added oleic acid
Structure (SMILES),cell number change [%],AC50 [1],AC50 [2]
CN(C)/C=N/c1cc(=O)[nH]c(=O)n1CC1CC1,29.6,"0.146 µM [rising, full curve, poor fit]","0.103 µM [falling, full curve, poor fit]"
CN(Cc1ccccc1)c1ccc2nnc(-c3ccccc3)n2n1,12.8,–,"9.2 µM [rising, partial curve, poor fit]"
CCOC(=O)NC(=O)c1cn(CCNCCO)c(=O)[nH]c1=O,-6.33,"0.00517 µM [falling, full curve, poor fit]",–
COc1ccc(Nc2oc(-c3ccccc3F)nc2C#N)cc1,13.9,–,–
C[n+]1ccc(/C=C/c2ccc(Br)cc2)cc1,52.9,"29.1 µM [rising, single point]",–
Oc1ccc2ccccc2c1CN1CCN(C/C=C/c2ccccc2)CC1,-53,"20.6 µM [falling, partial curve]","29.1 µM [falling, single point]"
C/C(CC(=O)Nc1cc(Cl)ccc1Cl)=N\NC(=O)c1ccccc1Br,–,"0.00517 µM [falling, full curve, poor fit]",–
CC(C)Oc1ccc(N2CC(C(=O)Nc3ccc4c(c3)OCO4)CC2=O)cc1 (centres undefined),-9.1,–,–
Cc1noc(C)c1COc1ccc(C(=O)N2CCCC(C(F)(F)F)C2)cc1 (centres undefined),29.1,"0.13 µM [rising, full curve, poor fit]","0.00517 µM [rising, full curve, poor fit]"
C=C(C)CNC(=S)N/N=C(\C)c1ccc(OC)cc1,-1.24,–,"6.51 µM [rising, single point]"
CCNC(=S)N1CCN(c2nc(-c3cccc(OC)c3)cs2)CC1,-24,–,"18.4 µM [falling, single point]"
CCOC(=O)CSc1cc(CS(C)(=O)=O)nc(-c2ccccn2)n1,12.5,–,"29.1 µM [rising, single point]"
CC(=O)c1cccc(NC(=O)COc2ccccc2C(=O)c2cc(C#N)c(=O)n(C3CCCCC3)c2)c1,10.9,–,"1.84 µM [rising, full curve, poor fit]"
O=C(CCc1ccccc1)Nc1nnc(-c2ccc3c(c2)CCCC3)o1,-30.1,"18.4 µM [falling, single point]","20.6 µM [falling, single point]"
CN(Cc1ccccc1)S(=O)(=O)c1ccc(Cl)c(C(=O)N2CCC2)c1,16.1,–,"13 µM [rising, partial curve, poor fit]"
O=C1CC(c2cccs2)CC(O)=C1C=NCCN1CCNCC1 (centres undefined),-52.4,"0.206 µM [falling, full curve]","6.51 µM [falling, single point]"

# An excerpt of these results, with bars between the fields.
Structure (SMILES) | cell number change [%] | AC50 [1] | AC50 [2]
C/C(CC(=O)Nc1cc(Cl)ccc1Cl)=N\NC(=O)c1ccccc1Br | – | 0.00517 µM [falling, full curve, poor fit] | –
CC(C)Oc1ccc(N2CC(C(=O)Nc3ccc4c(c3)OCO4)CC2=O)cc1 (centres undefined) | -9.1 | – | –

# Source: PubChem BioAssay AID2685 (National Center for Advancing Translational Sciences (NCATS), 2010)
